# Patent US20040209841A1, “Association compound of trehalose or maltitol with metal ion compound” (priority 2001, published 2004)
# How the values were obtained:
# [1] = Suppressing effect on the formation of scum during the cooking of boiled foods (Experiment 10); conditions: for Calcium in scum / Magnesium in scum / Potassium in scum / Sodium in scum: 10% (w/w) saccharide; for Weight of scum: 30 g pork, 400 ml 10% (w/w) saccharide, boiled five minutes; for Calcium in scum (%) / Magnesium in scum (%) / Potassium in scum (%) / Sodium in scum (%) / Weight of scum (%): no saccharide = 100
# [2] = Scum formation and elution of minerals from boiled vegetables (Experiment 12), garland chrysanthemum; conditions: for Calcium in filtrate / Calcium in scum / Magnesium in filtrate / Magnesium in scum / Potassium in filtrate / Potassium in scum / Sodium in filtrate / Sodium in scum / Calcium in filtrate (%) / Calcium in scum (%) / Calcium, total amount eluted (%) / Magnesium in filtrate (%) / Magnesium in scum (%) / Magnesium, total amount eluted (%) / Potassium in filtrate (%) / Potassium in scum (%) / Potassium, total amount eluted (%) / Sodium in filtrate (%) / Sodium in scum (%) / Sodium, total amount eluted (%) / Weight of scum (%) / Calcium, total amount of minerals eluted / Magnesium, total amount of minerals eluted / Potassium, total amount of minerals eluted / Sodium, total amount of minerals eluted: garland chrysanthemum; for Weight of scum: garland chrysanthemum 20 g, 400 ml 10% (w/w) saccharide, boiled five minutes; for Calcium in filtrate (%) / Calcium in scum (%) / Calcium, total amount eluted (%) / Magnesium in filtrate (%) / Magnesium in scum (%) / Magnesium, total amount eluted (%) / Potassium in filtrate (%) / Potassium in scum (%) / Potassium, total amount eluted (%) / Sodium in filtrate (%) / Sodium in scum (%) / Sodium, total amount eluted (%) / Weight of scum (%): no saccharide = 100; for Calcium, total amount of minerals eluted / Magnesium, total amount of minerals eluted / Potassium, total amount of minerals eluted / Sodium, total amount of minerals eluted: scum + filtrate
# [3] = Scum formation and elution of minerals from boiled vegetables (Experiment 12), spinach; conditions: for Calcium in filtrate / Calcium in scum / Magnesium in filtrate / Magnesium in scum / Potassium in filtrate / Potassium in scum / Sodium in filtrate / Sodium in scum / Calcium in filtrate (%) / Calcium in scum (%) / Calcium, total amount eluted (%) / Magnesium in filtrate (%) / Magnesium in scum (%) / Magnesium, total amount eluted (%) / Potassium in filtrate (%) / Potassium in scum (%) / Potassium, total amount eluted (%) / Sodium in filtrate (%) / Sodium in scum (%) / Sodium, total amount eluted (%) / Weight of scum (%) / Calcium, total amount of minerals eluted / Magnesium, total amount of minerals eluted / Potassium, total amount of minerals eluted / Sodium, total amount of minerals eluted: spinach; for Weight of scum: spinach 20 g, 400 ml 10% (w/w) saccharide, boiled five minutes; for Calcium in filtrate (%) / Calcium in scum (%) / Calcium, total amount eluted (%) / Magnesium in filtrate (%) / Magnesium in scum (%) / Magnesium, total amount eluted (%) / Potassium in filtrate (%) / Potassium in scum (%) / Potassium, total amount eluted (%) / Sodium in filtrate (%) / Sodium in scum (%) / Sodium, total amount eluted (%) / Weight of scum (%): no saccharide = 100; for Calcium, total amount of minerals eluted / Magnesium, total amount of minerals eluted / Potassium, total amount of minerals eluted / Sodium, total amount of minerals eluted: scum + filtrate
# [4] = Suppressing effect on the formation of scum from boiling foods (Experiment 9); conditions: for Weight of scum: 30 g pork + 20 g spinach in 400 ml water, boiled one minute; for Weight of scum RW (%) (relative weight): no saccharide = 100
# [5] = Elution of magnesium from boiling Japanese wheat noodles (Experiment 13); conditions: 5 g raw noodle, 40 ml 10% (w/w) trehalose, boiled two minutes
structure (smiles),measurement,setting,value
"OC[C@H]1O[C@@](CO)(O[C@H]2O[C@H](CO)[C@@H](O)[C@H](O)[C@H]2O)[C@@H](O)[C@@H]1O [Sucrose, sucrose]",Calcium in scum,[1],0.113 mg
same,Magnesium in scum,[1],0.052 mg
same,Potassium in scum,[1],0.025 mg
same,Sodium in scum,[1],0.299 mg
same,Weight of scum,[1],1.718 g
same,Calcium in scum (%),[1],97%
same,Magnesium in scum (%),[1],93%
same,Potassium in scum (%),[1],109%
same,Sodium in scum (%),[1],121%
same,Weight of scum (%),[1],76%
same,Calcium in filtrate,[2],12.683 mg
same,Calcium in scum,[2],0.299 µg
same,Magnesium in filtrate,[2],1.440 mg
same,Magnesium in scum,[2],0.059 µg
same,Potassium in filtrate,[2],0.655 mg
same,Potassium in scum,[2],0.288 µg
same,Sodium in filtrate,[2],3.213 mg
same,Sodium in scum,[2],0.058 µg
same,Weight of scum,[2],0.010 g
same,Calcium in filtrate (%),[2],97%
same,Calcium in scum (%),[2],73%
same,"Calcium, total amount eluted (%)",[2],97%
same,Magnesium in filtrate (%),[2],111%
same,Magnesium in scum (%),[2],63%
same,"Magnesium, total amount eluted (%)",[2],111%
same,Potassium in filtrate (%),[2],93%
same,Potassium in scum (%),[2],76%
same,"Potassium, total amount eluted (%)",[2],93%
same,Sodium in filtrate (%),[2],99%
same,Sodium in scum (%),[2],29%
same,"Sodium, total amount eluted (%)",[2],99%
same,Weight of scum (%),[2],71%
same,"Calcium, total amount of minerals eluted",[2],12.683 mg
same,"Magnesium, total amount of minerals eluted",[2],1.440 mg
same,"Potassium, total amount of minerals eluted",[2],0.656 mg
same,"Sodium, total amount of minerals eluted",[2],3.213 mg
same,Calcium in filtrate,[3],4.604 mg
same,Calcium in scum,[3],0.886 µg
same,Magnesium in filtrate,[3],6.954 mg
same,Magnesium in scum,[3],0.542 µg
same,Potassium in filtrate,[3],0.825 mg
same,Potassium in scum,[3],0.726 µg
same,Sodium in filtrate,[3],1.918 mg
same,Sodium in scum,[3],0.461 µg
same,Weight of scum,[3],0.022 g
same,Calcium in filtrate (%),[3],104%
same,Calcium in scum (%),[3],78%
same,"Calcium, total amount eluted (%)",[3],104%
same,Magnesium in filtrate (%),[3],100%
same,Magnesium in scum (%),[3],64%
same,"Magnesium, total amount eluted (%)",[3],100%
same,Potassium in filtrate (%),[3],106%
same,Potassium in scum (%),[3],60%
same,"Potassium, total amount eluted (%)",[3],106%
same,Sodium in filtrate (%),[3],98%
same,Sodium in scum (%),[3],56%
same,"Sodium, total amount eluted (%)",[3],98%
same,Weight of scum (%),[3],65%
same,"Calcium, total amount of minerals eluted",[3],4.605 mg
same,"Magnesium, total amount of minerals eluted",[3],6.955 mg
same,"Potassium, total amount of minerals eluted",[3],0.825 mg
same,"Sodium, total amount of minerals eluted",[3],1.919 mg
same,Ash in scum,[4]; saccharide 2% (w/w),0.013 g
same,Ca in scum,[4]; saccharide 2% (w/w),1.672 mg
same,Fat in scum,[4]; saccharide 2% (w/w),0.871 g
same,Mg in scum,[4]; saccharide 2% (w/w),2.475 mg
same,Protein in scum,[4]; saccharide 2% (w/w),0.170 g
same,Weight of scum,[4]; saccharide 2% (w/w),1.060 g
same,Weight of scum RW (%) (relative weight),[4]; saccharide 2% (w/w),97%
"OC[C@H]1O[C@H](O[C@H]2O[C@H](CO)[C@@H](O)[C@H](O)[C@H]2O)[C@H](O)[C@@H](O)[C@@H]1O [Trehalose, α,α-trehalose]",Calcium in scum,[1],0.048 mg
same,Magnesium in scum,[1],0.011 mg
same,Potassium in scum,[1],0.017 mg
same,Sodium in scum,[1],0.182 mg
same,Weight of scum,[1],0.579 g
same,Calcium in scum (%),[1],41%
same,Magnesium in scum (%),[1],20%
same,Potassium in scum (%),[1],74%
same,Sodium in scum (%),[1],74%
same,Weight of scum (%),[1],26%
same,Calcium in filtrate,[2],11.928 mg
same,Calcium in scum,[2],0.156 µg
same,Magnesium in filtrate,[2],0.628 mg
same,Magnesium in scum,[2],0.034 µg
same,Potassium in filtrate,[2],0.615 mg
same,Potassium in scum,[2],0.300 µg
same,Sodium in filtrate,[2],3.314 mg
same,Sodium in scum,[2],0.074 µg
same,Weight of scum,[2],0.008 g
same,Calcium in filtrate (%),[2],91%
same,Calcium in scum (%),[2],38%
same,"Calcium, total amount eluted (%)",[2],91%
same,Magnesium in filtrate (%),[2],48%
same,Magnesium in scum (%),[2],37%
same,"Magnesium, total amount eluted (%)",[2],48%
same,Potassium in filtrate (%),[2],87%
same,Potassium in scum (%),[2],79%
same,"Potassium, total amount eluted (%)",[2],87%
same,Sodium in filtrate (%),[2],103%
same,Sodium in scum (%),[2],37%
same,"Sodium, total amount eluted (%)",[2],103%
same,Weight of scum (%),[2],57%
same,"Calcium, total amount of minerals eluted",[2],11.928 mg
same,"Magnesium, total amount of minerals eluted",[2],0.628 mg
same,"Potassium, total amount of minerals eluted",[2],0.615 mg
same,"Sodium, total amount of minerals eluted",[2],3.314 mg
same,Magnesium in filtrate,[5],51.9 µg
same,Calcium in filtrate,[3],3.850 mg
same,Calcium in scum,[3],0.553 µg
same,Magnesium in filtrate,[3],3.264 mg
same,Magnesium in scum,[3],0.501 µg
same,Potassium in filtrate,[3],0.752 mg
same,Potassium in scum,[3],0.804 µg
same,Sodium in filtrate,[3],1.879 mg
same,Sodium in scum,[3],0.727 µg
same,Weight of scum,[3],0.022 g
same,Calcium in filtrate (%),[3],87%
same,Calcium in scum (%),[3],48%
same,"Calcium, total amount eluted (%)",[3],87%
same,Magnesium in filtrate (%),[3],47%
same,Magnesium in scum (%),[3],61%
same,"Magnesium, total amount eluted (%)",[3],47%
same,Potassium in filtrate (%),[3],97%
same,Potassium in scum (%),[3],67%
same,"Potassium, total amount eluted (%)",[3],97%
same,Sodium in filtrate (%),[3],96%
same,Sodium in scum (%),[3],88%
same,"Sodium, total amount eluted (%)",[3],96%
same,Weight of scum (%),[3],65%
same,"Calcium, total amount of minerals eluted",[3],3.851 mg
same,"Magnesium, total amount of minerals eluted",[3],3.265 mg
same,"Potassium, total amount of minerals eluted",[3],0.753 mg
same,"Sodium, total amount of minerals eluted",[3],1.879 mg
same,Ash in scum,[4]; saccharide 2% (w/w),0.009 g
same,Ca in scum,[4]; saccharide 2% (w/w),1.613 mg
same,Fat in scum,[4]; saccharide 2% (w/w),0.406 g
same,Mg in scum,[4]; saccharide 2% (w/w),0.810 mg
same,Protein in scum,[4]; saccharide 2% (w/w),0.076 g
same,Weight of scum,[4]; saccharide 2% (w/w),0.506 g
same,Weight of scum RW (%) (relative weight),[4]; saccharide 2% (w/w),46%
same,Ash in scum,[4]; saccharide 10% (w/w),0.005 g
same,Ca in scum,[4]; saccharide 10% (w/w),1.593 mg
same,Fat in scum,[4]; saccharide 10% (w/w),0.244 g
same,Mg in scum,[4]; saccharide 10% (w/w),0.156 mg
same,Protein in scum,[4]; saccharide 10% (w/w),0.048 g
same,Weight of scum,[4]; saccharide 10% (w/w),0.315 g
same,Weight of scum RW (%) (relative weight),[4]; saccharide 10% (w/w),29%
